The values that follow come from publication doi:10.1101/2023.10.26.564194.

Protein sequences, listed by entry. Tags and fused reporters are not part of them.
UniProt P04792: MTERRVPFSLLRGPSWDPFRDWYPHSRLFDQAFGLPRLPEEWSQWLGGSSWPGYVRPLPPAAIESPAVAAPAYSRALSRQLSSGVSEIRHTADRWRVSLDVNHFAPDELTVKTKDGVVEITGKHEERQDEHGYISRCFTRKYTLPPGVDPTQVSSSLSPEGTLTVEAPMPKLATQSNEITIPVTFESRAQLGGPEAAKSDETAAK
UniProt O60331: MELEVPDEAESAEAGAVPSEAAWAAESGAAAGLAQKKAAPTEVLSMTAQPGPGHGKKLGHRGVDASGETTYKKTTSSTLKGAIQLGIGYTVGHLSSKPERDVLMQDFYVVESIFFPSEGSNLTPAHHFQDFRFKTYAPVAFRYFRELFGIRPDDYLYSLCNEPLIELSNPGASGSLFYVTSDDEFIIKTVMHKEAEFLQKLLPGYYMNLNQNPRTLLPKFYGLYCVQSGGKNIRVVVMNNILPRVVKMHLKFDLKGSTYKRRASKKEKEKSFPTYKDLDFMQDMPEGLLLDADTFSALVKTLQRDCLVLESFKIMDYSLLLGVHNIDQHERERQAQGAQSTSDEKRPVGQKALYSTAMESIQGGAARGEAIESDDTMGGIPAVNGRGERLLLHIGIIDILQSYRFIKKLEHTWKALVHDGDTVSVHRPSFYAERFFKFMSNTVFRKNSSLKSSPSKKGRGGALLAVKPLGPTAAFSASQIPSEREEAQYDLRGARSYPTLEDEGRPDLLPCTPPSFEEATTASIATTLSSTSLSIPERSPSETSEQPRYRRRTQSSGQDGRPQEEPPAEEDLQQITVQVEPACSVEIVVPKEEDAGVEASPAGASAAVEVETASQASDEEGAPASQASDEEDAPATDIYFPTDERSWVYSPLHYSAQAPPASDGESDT

In one assay the target is recombinant HSP27 (UniProt P04792). In words: pull-down.
For assay [1], the target named is T1, recombinant αB-crystallin (UniProt P02511).
T1 sequence: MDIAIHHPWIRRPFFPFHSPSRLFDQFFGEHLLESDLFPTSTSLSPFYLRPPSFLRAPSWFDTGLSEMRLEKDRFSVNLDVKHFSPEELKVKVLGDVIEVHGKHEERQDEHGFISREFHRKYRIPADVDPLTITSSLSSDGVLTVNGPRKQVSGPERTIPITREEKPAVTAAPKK
In words: pull-down.

In assay [2] the target is T2, nuclear factor erythroid 2-related factor 2 (NRF2), endogenous (human (endogenous in MDA-MB-231, HCT116, MCF7)) (UniProt Q16236).
T2 sequence: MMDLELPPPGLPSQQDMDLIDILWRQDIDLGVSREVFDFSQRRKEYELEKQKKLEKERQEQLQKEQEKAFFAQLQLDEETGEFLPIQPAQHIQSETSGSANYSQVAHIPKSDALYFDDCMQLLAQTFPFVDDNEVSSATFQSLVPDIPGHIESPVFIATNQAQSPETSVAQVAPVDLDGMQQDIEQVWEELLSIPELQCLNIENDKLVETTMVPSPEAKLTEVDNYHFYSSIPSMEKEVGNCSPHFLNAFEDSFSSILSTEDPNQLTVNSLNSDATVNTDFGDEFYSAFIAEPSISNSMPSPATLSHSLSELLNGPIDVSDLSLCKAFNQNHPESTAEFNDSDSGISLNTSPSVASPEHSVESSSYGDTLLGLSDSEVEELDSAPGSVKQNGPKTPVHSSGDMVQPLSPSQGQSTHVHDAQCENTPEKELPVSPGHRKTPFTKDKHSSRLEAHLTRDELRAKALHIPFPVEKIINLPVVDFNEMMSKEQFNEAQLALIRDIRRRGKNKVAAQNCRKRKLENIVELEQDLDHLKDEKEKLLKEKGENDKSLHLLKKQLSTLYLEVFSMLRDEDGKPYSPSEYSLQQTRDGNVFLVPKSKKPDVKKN
The assay is described as follows: proximity ligation.

Assay [3] deals with T2, nuclear factor erythroid 2-related factor 2 (NRF2), endogenous (human (endogenous in MDA-MB-231, HCT116, MCF7)). The assay is described as follows: co-IP.
The target in assay [4] is type I phosphatidylinositol phosphate kinase γ (PIPKIγ), endogenous (human (endogenous in MDA-MB-231, HCT116)) (UniProt O60331). The assay is described as follows: proximity ligation.
In assay [5] the target is HSP27, endogenous (human (endogenous in MDA-MB-231, MCF7)) (UniProt P04792). The assay is described as follows: co-IP.
Assay [6] has as its target type I phosphatidylinositol phosphate kinase γ (PIPKIγ), endogenous (human (endogenous in MDA-MB-231, HCT116)) (UniProt O60331). In words: co-IP.

These are yes or no findings as the source states them, for the method shown. For some of these results: Binding seen in cells or lysates may run through a third protein. Some binding calls cover weakened binding; strength is not graded here. For some of these results: Tags and fused reporters may be left off the sequences shown.

B1: recombinant His-Tag NRF2 truncation mutant Δ2-86 amino acids (Neh2 domain deleted) (domain or fragment, UniProt Q16236)
chain: MQPAQHIQSETSGSANYSQVAHIPKSDALYFDDCMQLLAQTFPFVDDNEVSSATFQSLVPDIPGHIESPVFIATNQAQSPETSVAQVAPVDLDGMQQDIEQVWEELLSIPELQCLNIENDKLVETTMVPSPEAKLTEVDNYHFYSSIPSMEKEVGNCSPHFLNAFEDSFSSILSTEDPNQLTVNSLNSDATVNTDFGDEFYSAFIAEPSISNSMPSPATLSHSLSELLNGPIDVSDLSLCKAFNQNHPESTAEFNDSDSGISLNTSPSVASPEHSVESSSYGDTLLGLSDSEVEELDSAPGSVKQNGPKTPVHSSGDMVQPLSPSQGQSTHVHDAQCENTPEKELPVSPGHRKTPFTKDKHSSRLEAHLTRDELRAKALHIPFPVEKIINLPVVDFNEMMSKEQFNEAQLALIRDIRRRGKNKVAAQNCRKRKLENIVELEQDLDHLKDEKEKLLKEKGENDKSLHLLKKQLSTLYLEVFSMLRDEDGKPYSPSEYSLQQTRDGNVFLVPKSKKPDVKKN
For the molecule B1, the binding result (in the assay with recombinant HSP27; in assay [1]) was “no binding” in each case.

B2: αB-crystallin, endogenous (protein, UniProt P02511 1-175)
chain: MDIAIHHPWIRRPFFPFHSPSRLFDQFFGEHLLESDLFPTSTSLSPFYLRPPSFLRAPSWFDTGLSEMRLEKDRFSVNLDVKHFSPEELKVKVLGDVIEVHGKHEERQDEHGFISREFHRKYRIPADVDPLTITSSLSSDGVLTVNGPRKQVSGPERTIPITREEKPAVTAAPKK
For B2, the binding entry in assay [2] and in assay [3] was “binds” throughout.

B3: nuclear factor erythroid 2-related factor 2 (NRF2), endogenous (protein, UniProt Q16236 1-605)
chain: MMDLELPPPGLPSQQDMDLIDILWRQDIDLGVSREVFDFSQRRKEYELEKQKKLEKERQEQLQKEQEKAFFAQLQLDEETGEFLPIQPAQHIQSETSGSANYSQVAHIPKSDALYFDDCMQLLAQTFPFVDDNEVSSATFQSLVPDIPGHIESPVFIATNQAQSPETSVAQVAPVDLDGMQQDIEQVWEELLSIPELQCLNIENDKLVETTMVPSPEAKLTEVDNYHFYSSIPSMEKEVGNCSPHFLNAFEDSFSSILSTEDPNQLTVNSLNSDATVNTDFGDEFYSAFIAEPSISNSMPSPATLSHSLSELLNGPIDVSDLSLCKAFNQNHPESTAEFNDSDSGISLNTSPSVASPEHSVESSSYGDTLLGLSDSEVEELDSAPGSVKQNGPKTPVHSSGDMVQPLSPSQGQSTHVHDAQCENTPEKELPVSPGHRKTPFTKDKHSSRLEAHLTRDELRAKALHIPFPVEKIINLPVVDFNEMMSKEQFNEAQLALIRDIRRRGKNKVAAQNCRKRKLENIVELEQDLDHLKDEKEKLLKEKGENDKSLHLLKKQLSTLYLEVFSMLRDEDGKPYSPSEYSLQQTRDGNVFLVPKSKKPDVKKN
As to B3, the binding entry in assay [4], in assay [5] and in assay [6] was “binds” each time.
